Measured data: PubChem BioAssay AID743121 (NCATS, 2013)
Assay: 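Knock-downs that sensitise breast cancer cells to camptothecin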 (primary screen). Cell system: MDA-MB-231 cells, a human breast cancer line. Reagent: single siRNA against human genes, 20 nM siRNA (0.8 pmol per well). Duration: 120 h (drug added 48 h after transfection, read 72 h later). Challenge: camptothecin 20 nM (about EC30) for 72 h; vehicle 0.1% DMSO in parallel plates. Read-out: 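Cell viability by ATP luminescence (CellTiter-Glo) as % of non-targeting siRNA wells, and the log2 ratio of viability without drug over viability with camptothecin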. Scale: log2 vehicle/camptothecin viability: higher = stronger sensitisation to camptothecin. Active means: 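Each gene scored by redundant siRNA activity (RSA) over its individual siRNA ratios; a gene is called active at p < 0.001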.
Here is an unselected part of about 26,000 reagents. Over the whole deposit, 167 (0.63%) got an active call. 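Calls are per gene from RSA p-values that are not deposited; an individual active-marked siRNA can sensitise only weakly.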 A number with no mark means an inactive call. Reagents against one gene are numbered here. Not all columns of the deposit are shown. No sequences are given here.

ZMYND11 (zinc finger MYND-type containing 11) #1: log2 vehicle/camptothecin viability = -0.159
ZMYND11 (zinc finger MYND-type containing 11) #2: log2 vehicle/camptothecin viability = -0.458
ZMYND11 (zinc finger MYND-type containing 11) #3: log2 vehicle/camptothecin viability = -0.38
ZMYND11 (zinc finger MYND-type containing 11) #4: log2 vehicle/camptothecin viability = -0.494
TPT1P8 (TPT1 pseudogene 8) #1: log2 vehicle/camptothecin viability = 0.144
TPT1P8 (TPT1 pseudogene 8) #2: log2 vehicle/camptothecin viability = 0.342
TPT1P8 (TPT1 pseudogene 8) #3: log2 vehicle/camptothecin viability = -0.0294
TPT1P8 (TPT1 pseudogene 8) #4: log2 vehicle/camptothecin viability = 0.68
UBQLN3 (ubiquilin 3) #1: log2 vehicle/camptothecin viability = -0.299
UBQLN3 (ubiquilin 3) #2: log2 vehicle/camptothecin viability = -0.196
UBQLN3 (ubiquilin 3) #3: log2 vehicle/camptothecin viability = 0.097
UBQLN3 (ubiquilin 3) #4: log2 vehicle/camptothecin viability = -0.58
TALDO1 (transaldolase 1) #1: log2 vehicle/camptothecin viability = -0.301
TALDO1 (transaldolase 1) #2: log2 vehicle/camptothecin viability = -0.0118
TALDO1 (transaldolase 1) #3: log2 vehicle/camptothecin viability = -0.172
TALDO1 (transaldolase 1) #4: log2 vehicle/camptothecin viability = 0.0296
FGA (fibrinogen alpha chain) #1: log2 vehicle/camptothecin viability = -0.186
FGA (fibrinogen alpha chain) #2: log2 vehicle/camptothecin viability = -0.542
FGA (fibrinogen alpha chain) #3: log2 vehicle/camptothecin viability = -0.644
RPS27AP5 (ribosomal protein S27a pseudogene 5) #1: log2 vehicle/camptothecin viability = -0.0471
RPS27AP5 (ribosomal protein S27a pseudogene 5) #2: log2 vehicle/camptothecin viability = -0.563
RPS27AP5 (ribosomal protein S27a pseudogene 5) #3: log2 vehicle/camptothecin viability = -0.357
KCNK9 (potassium two pore domain channel subfamily K member 9) #1: log2 vehicle/camptothecin viability = -0.637
KCNK9 (potassium two pore domain channel subfamily K member 9) #2: log2 vehicle/camptothecin viability = -0.206
KCNK9 (potassium two pore domain channel subfamily K member 9) #3: log2 vehicle/camptothecin viability = -0.0515
CD247 (CD247 molecule) #1: log2 vehicle/camptothecin viability = -0.328
CD247 (CD247 molecule) #2: log2 vehicle/camptothecin viability = 0.0445
CD247 (CD247 molecule) #3: log2 vehicle/camptothecin viability = -0.163
CD247 (CD247 molecule) #4: log2 vehicle/camptothecin viability = -0.265
SIRT3 (sirtuin 3) #1: log2 vehicle/camptothecin viability = -0.348
SIRT3 (sirtuin 3) #2: log2 vehicle/camptothecin viability = -0.0652
SIRT3 (sirtuin 3) #3: log2 vehicle/camptothecin viability = -0.533
SIRT3 (sirtuin 3) #4: log2 vehicle/camptothecin viability = -0.173
PACSIN1 (protein kinase C and casein kinase substrate in neurons 1) #1: log2 vehicle/camptothecin viability = -0.67
PACSIN1 (protein kinase C and casein kinase substrate in neurons 1) #2: log2 vehicle/camptothecin viability = 1.3
PACSIN1 (protein kinase C and casein kinase substrate in neurons 1) #3: log2 vehicle/camptothecin viability = -0.185
PACSIN1 (protein kinase C and casein kinase substrate in neurons 1) #4: log2 vehicle/camptothecin viability = -0.19
GTPBP4 (GTP binding protein 4) #1: log2 vehicle/camptothecin viability = -0.443
GTPBP4 (GTP binding protein 4) #2: log2 vehicle/camptothecin viability = -0.438
GTPBP4 (GTP binding protein 4) #3: log2 vehicle/camptothecin viability = -0.409
DUSP23 (dual specificity phosphatase 23) #1: log2 vehicle/camptothecin viability = -0.541
DUSP23 (dual specificity phosphatase 23) #2: log2 vehicle/camptothecin viability = -0.339
DUSP23 (dual specificity phosphatase 23) #3: log2 vehicle/camptothecin viability = -0.0268
DUSP23 (dual specificity phosphatase 23) #4: log2 vehicle/camptothecin viability = -0.594
CYP39A1 (cytochrome P450 family 39 subfamily A member 1) #1: log2 vehicle/camptothecin viability = -0.336
CYP39A1 (cytochrome P450 family 39 subfamily A member 1) #2: log2 vehicle/camptothecin viability = 0.0437
CYP39A1 (cytochrome P450 family 39 subfamily A member 1) #3: log2 vehicle/camptothecin viability = -0.38
CYP39A1 (cytochrome P450 family 39 subfamily A member 1) #4: log2 vehicle/camptothecin viability = -0.243

Individual results from above.
Result of ZMYND11 (zinc finger MYND-type containing 11) #2 in “log2 vehicle/camptothecin viability”: -0.458
UBQLN3 (ubiquilin 3) #3, log2 vehicle/camptothecin viability → 0.097
For “log2 vehicle/camptothecin viability”, PACSIN1 (protein kinase C and casein kinase substrate in neurons 1) #4 is entered as -0.19
Result for GTPBP4 (GTP binding protein 4) #3 in “log2 vehicle/camptothecin viability”: -0.409
Result of DUSP23 (dual specificity phosphatase 23) #1 in “log2 vehicle/camptothecin viability”: -0.541
Under “log2 vehicle/camptothecin viability”, DUSP23 (dual specificity phosphatase 23) #2 is entered as -0.339
